The values that follow come from PMC8313131.

Results are given in words; binding and its absence hold for the method and conditions named. For some assays here: Binding seen in cells or lysates may run through a third protein. Some binding calls cover weakened binding; strength is not graded here. For some assays here: Sequences can lack the tags named with a protein.

The target of test [1] is T1, OsHox32 (rice (Oryza sativa L.)) (UniProt Q6AST1).
T1 sequence: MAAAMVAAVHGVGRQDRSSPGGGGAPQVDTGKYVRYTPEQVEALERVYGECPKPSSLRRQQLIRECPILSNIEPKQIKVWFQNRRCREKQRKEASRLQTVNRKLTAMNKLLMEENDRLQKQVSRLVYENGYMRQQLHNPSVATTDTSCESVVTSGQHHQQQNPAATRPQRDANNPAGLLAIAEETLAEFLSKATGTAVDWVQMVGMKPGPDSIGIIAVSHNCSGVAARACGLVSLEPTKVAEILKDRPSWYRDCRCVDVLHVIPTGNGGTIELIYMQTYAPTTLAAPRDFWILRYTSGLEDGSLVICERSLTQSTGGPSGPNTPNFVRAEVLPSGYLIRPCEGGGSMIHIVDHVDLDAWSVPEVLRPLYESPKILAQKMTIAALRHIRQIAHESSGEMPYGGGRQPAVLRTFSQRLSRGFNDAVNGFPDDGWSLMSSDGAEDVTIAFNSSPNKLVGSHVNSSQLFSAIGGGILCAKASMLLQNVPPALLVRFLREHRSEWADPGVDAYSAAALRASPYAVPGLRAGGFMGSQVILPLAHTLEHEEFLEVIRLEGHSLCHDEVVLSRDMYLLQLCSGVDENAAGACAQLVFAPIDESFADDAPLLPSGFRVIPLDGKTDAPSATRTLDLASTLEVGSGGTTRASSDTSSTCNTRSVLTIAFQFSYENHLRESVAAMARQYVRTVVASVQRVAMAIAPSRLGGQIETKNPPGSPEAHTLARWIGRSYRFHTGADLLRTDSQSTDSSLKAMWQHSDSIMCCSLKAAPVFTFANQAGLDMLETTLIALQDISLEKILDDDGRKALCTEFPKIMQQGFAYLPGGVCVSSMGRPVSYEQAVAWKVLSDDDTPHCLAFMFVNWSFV
The test is described as follows: two-hybrid; yeast two-hybrid (Clontech), pGBKT7 and pGADT7 constructs; growth on synthetic complete medium lacking Trp, Leu, His and Ade.

For test [2], the target named is T2, OsHox32‐nYFP fusion protein (rice (Oryza sativa L.)) (UniProt Q6AST1).
T2 sequence: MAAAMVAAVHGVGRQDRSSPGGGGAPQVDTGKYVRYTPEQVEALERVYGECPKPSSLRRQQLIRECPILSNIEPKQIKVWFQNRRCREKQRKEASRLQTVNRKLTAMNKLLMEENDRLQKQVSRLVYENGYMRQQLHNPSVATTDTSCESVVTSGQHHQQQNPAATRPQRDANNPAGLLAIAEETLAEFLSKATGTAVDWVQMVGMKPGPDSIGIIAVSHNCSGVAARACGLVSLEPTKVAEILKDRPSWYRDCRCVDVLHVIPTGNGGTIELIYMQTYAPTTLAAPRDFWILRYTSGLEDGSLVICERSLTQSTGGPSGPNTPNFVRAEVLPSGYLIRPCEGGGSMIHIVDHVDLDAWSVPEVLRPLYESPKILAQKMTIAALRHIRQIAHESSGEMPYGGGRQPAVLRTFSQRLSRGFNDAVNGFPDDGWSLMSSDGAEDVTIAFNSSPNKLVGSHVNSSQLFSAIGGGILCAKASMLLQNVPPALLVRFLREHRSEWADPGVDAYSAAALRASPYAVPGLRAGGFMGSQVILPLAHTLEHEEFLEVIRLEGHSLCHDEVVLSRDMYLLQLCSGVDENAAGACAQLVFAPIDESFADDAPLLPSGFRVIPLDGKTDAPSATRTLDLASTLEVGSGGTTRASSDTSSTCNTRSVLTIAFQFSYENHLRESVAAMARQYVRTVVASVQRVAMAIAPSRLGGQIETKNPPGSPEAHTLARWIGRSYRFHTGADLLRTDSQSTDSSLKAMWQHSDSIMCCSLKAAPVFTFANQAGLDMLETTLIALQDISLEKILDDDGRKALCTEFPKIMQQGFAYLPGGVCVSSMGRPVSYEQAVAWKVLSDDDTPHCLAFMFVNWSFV
Nature of the test: split reporter; BiFC: OsHox32‐nYFP and OSH15‐cYFP co-transfected into Arabidopsis protoplast cells, 23 °C for 16 h, YFP fluorescence by microscopy.

B1: OSH15 (Oryza sativa homeobox 15) (protein, UniProt O80416 1-355)
chain: MDQSFGNLGGGGGAGGSGKAAASSFLQLPLSTAAAATAYYGTPLALHQAAAAAGPSQYHGHGHPHHGGGHHHSKHGGAGGGEISAAEAESIKAKIMAHPQYSALLAAYLDCQKVGAPPEVLERLTATAAKLDARPPGRHDARDPELDQFMEAYCNMLAKYREELTRPIDEAMEFLKRVESQLDTIAGGAHGGGAGSARLLLADGKSECVGSSEDDMDPSGRENEPPEIDPRAEDKELKFQLLKKYSGYLSSLRQEFSKKKKKGKLPKEARQKLLHWWELHYKWPYPSETEKIALAESTGLDQKQINNWFINQRKRHWKPSEDMPFVMMEGFHPQNAAALYMDGPFMADGMYRLGS
Turning to B1, in test [1], the binding result was “binds”.

B2: OSH15‐cYFP fusion protein (protein, UniProt O80416 1-355)
chain: MDQSFGNLGGGGGAGGSGKAAASSFLQLPLSTAAAATAYYGTPLALHQAAAAAGPSQYHGHGHPHHGGGHHHSKHGGAGGGEISAAEAESIKAKIMAHPQYSALLAAYLDCQKVGAPPEVLERLTATAAKLDARPPGRHDARDPELDQFMEAYCNMLAKYREELTRPIDEAMEFLKRVESQLDTIAGGAHGGGAGSARLLLADGKSECVGSSEDDMDPSGRENEPPEIDPRAEDKELKFQLLKKYSGYLSSLRQEFSKKKKKGKLPKEARQKLLHWWELHYKWPYPSETEKIALAESTGLDQKQINNWFINQRKRHWKPSEDMPFVMMEGFHPQNAAALYMDGPFMADGMYRLGS
Turning to B2, the binding entry in test [2] is “binds”.
